In PubChem BioAssay AID248 (DTP/NCI, 2004):
The list shows only some results of the screen, not a fair sample: it gathers tests that were run many times, whatever their T/C, doses with no T/C, and many T/C values between a quarter and a half above the control. Other doses and runs of a compound stand elsewhere. T/C is the treated group as % of the vehicle group. Some doses have a count of surviving animals in place of a T/C: the source holds a T/C of zero for them, seemingly a mark for toxic or unscored doses. Some doses without a T/C left all or most animals alive at the check, yet need not have been tolerated: the source hardly ever lists a survival T/C far under the control, and the zero likely stands for such cases as well. Survivors were counted at the toxicity check, usually on the fifth day, unless a day is given; later deaths do not show. Schedules are NCI's codes, read here as Q, the interval in days (D) or hours (H), X, the number of doses. Some schedule codes hold Z or #, which are not explained here. Where survival is the endpoint, this PubChem deposit counts one and a half times the control or more as active, and values a quarter to a half above the control carry no call in these data; other NCI protocols may use other cut-offs. Some doses were run more than once; the results are listed from low to high.

Tested on: L1210 leukemia ip in BDF1 mice, survival T/C
Assay: NCI In Vivo Anticancer Drug Screen. Data for tumor model L1210 Leukemia (intraperitoneal) in B6D2F1 (BDF1) mice
Details: T/C endpoint: mean survival time, higher T/C = longer survival
[1] = dose: 200.0 mg/kg/injection, schedule: Q01DX001 (ip), vehicle: carboxymethylcellulose (CMC)
[2] = dose: 400.0 mg/kg/injection, schedule: Q01DX001 (ip), vehicle: carboxymethylcellulose (CMC)
[3] = dose: 400.0 mg/kg/injection, schedule: Q04DX002 (ip), vehicle: saline with Tween-80
[4] = dose: 400.0 mg/kg/injection, schedule: Q04DX003 (ip), vehicle: saline
[5] = dose: 50.0 mg/kg/injection, schedule: Q01DX009 (ip), vehicle: saline with Tween-80
[6] = dose: 200.0 mg/kg/injection, schedule: Q04DX003 (ip), vehicle: Klucel (hydroxypropylcellulose) (HPC)
[7] = dose: 400.0 mg/kg/injection, schedule: Q01DX001 (ip), vehicle: saline
[8] = dose: 200.0 mg/kg/injection, schedule: Q01DX009 (ip), vehicle: saline with Tween-80
[9] = dose: 300.0 mg/kg/injection, schedule: Q01DX001 (ip), vehicle: saline
[10] = dose: 400.0 mg/kg/injection, schedule: Q01DX009 (ip), vehicle: Klucel (hydroxypropylcellulose) (HPC)
[11] = dose: 200.0 mg/kg/injection, schedule: Q01DX001 (ip), vehicle: saline

In the case of CCOCC(=O)C(C#N)c1ccc(Cl)c(Cl)c1 (stereo not given), the survivor count [1] is reported as 0 of 4 and the survivor count [2] is reported as 0 of 4.
For CCOC(=O)C(Cl)C(C)(O)c1ccccc1 (stereo not given), the survivor count [3] was 3 of 3.
O=C1c2ccccc2C(O)(O)C1(O)C1(O)C(=O)c2ccccc2C1(O)O (stereo not given) was tested, and the survivor count [2] was 0 of 4.
With O=[N+]([O-])c1ccc(/C=C\c2ccncc2)cc1 the survivor count (dose: 400.0 mg/kg/injection, schedule: Q01DX009 (ip), vehicle: carboxymethylcellulose (CMC)) was 0 of 6.
O=C1OC(c2ccccc2)=N/C1=C\c1ccc2c(c1)OCO2 was tested, and the survivor count [2] was 6 of 6.
With Cc1ccc(NC(=O)COc2ccc(C)cc2C)cc1 the survivor count (dose: 400.0 mg/kg/injection, schedule: Q04DX002 (ip), vehicle: gum acacia) was 3 of 3.
For C[C@]12CC[C@H]3[C@@H](CC[C@@H]4C[C@@H](O)CC[C@@]43C=O)[C@]13O[C@@H]3CC2c1ccc(=O)oc1 (stereo not given in full), the survivor count (dose: 2.0 mg/kg/injection, schedule: Q01DX009 (ip), vehicle: Klucel (hydroxypropylcellulose) (HPC)) was 1 of 3.
CN1CCSC1S (stereo not given) was tested, and the survivor count (dose: 100.0 mg/kg/injection, schedule: Q01DX001 (ip), vehicle: steroid suspending solution) was 2 of 4, the survivor count (dose: 200.0 mg/kg/injection, schedule: Q01DX001 (ip), vehicle: steroid suspending solution) was 1 of 4 and the survivor count (dose: 400.0 mg/kg/injection, schedule: Q01DX001 (ip), vehicle: steroid suspending solution) was 0 of 4.
With CN1CCC(OC(c2ccccc2)c2ccccc2)CC1 the survivor count (dose: 80.0 mg/kg/injection, schedule: Q01DX009 (ip), vehicle: saline) was 1 of 6, the survivor count (dose: 100.0 mg/kg/injection, schedule: Q04DX003 (ip), vehicle: saline) was 3 of 6 and the survivor count (dose: 200.0 mg/kg/injection, schedule: Q04DX003 (ip), vehicle: saline) was 0 of 6. For the same compound, the survivor count [4] was 0 of 6.
In the case of CCNC(=O)Oc1c(Cl)cc(S(=O)(=O)F)cc1Cl, the survivor count [5] is reported as 3 of 3, the survivor count (dose: 100.0 mg/kg/injection, schedule: Q04DX002 (ip), vehicle: saline with Tween-80) is reported as 0 of 3 and the survivor count (dose: 200.0 mg/kg/injection, schedule: Q04DX002 (ip), vehicle: saline with Tween-80) is reported as 0 of 3. For the same compound, the survivor count [3] was 0 of 3.
CCC(O)CN (stereo not given) was tested, and the survivor count [4] was 3 of 3.
In the case of CCCCN=CC(C)(C)NCCCC, the survivor count (dose: 400.0 mg/kg/injection, schedule: Q01DX009 (ip), vehicle: saline) is reported as 0 of 6 and the survivor count [4] is reported as 4 of 6.
In the case of CCOC(=O)C[P+](c1ccc(C)cc1)(c1ccc(C)cc1)c1ccc(C)cc1, the survivor count (dose: 30.0 mg/kg/injection, schedule: Q01DX001 (ip), vehicle: carboxymethylcellulose (CMC)) is reported as 5 of 6 and the survivor count (dose: 60.0 mg/kg/injection, schedule: Q01DX001 (ip), vehicle: carboxymethylcellulose (CMC)) is reported as 0 of 6.
For CN(C)C1CCC(/C=C(\C#N)C2CCC([N+](=O)[O-])CC2)CC1 (stereo not given), the T/C (dose: 100.0 mg/kg/injection, schedule: Q04DX002 (ip), vehicle: Klucel (hydroxypropylcellulose) (HPC)) was 126 % of control.
With Nc1nc(SCc2ccccn2)c2[nH]cnc2n1 the T/C (dose: 25.0 mg/kg/injection, schedule: Q04DX003 (ip), vehicle: Klucel (hydroxypropylcellulose) (HPC)) was 138 % of control, the T/C (dose: 50.0 mg/kg/injection, schedule: Q04DX003 (ip), vehicle: Klucel (hydroxypropylcellulose) (HPC)) was 138 % of control and the T/C (dose: 100.0 mg/kg/injection, schedule: Q04DX003 (ip), vehicle: Klucel (hydroxypropylcellulose) (HPC)) was 134 and 145 % of control. The T/C (dose: 150.0 mg/kg/injection, schedule: Q04DX003 (ip), vehicle: Klucel (hydroxypropylcellulose) (HPC)) was 134 % of control, the T/C [6] was 144 % of control and the T/C (dose: 600.0 mg/kg/injection, schedule: Q04DX003 (ip), vehicle: Klucel (hydroxypropylcellulose) (HPC)) was 139 % of control.
COc1ccc(/C=C2\CCC3C4(CCCC3(C)C2=O)OCCO4)cc1 (stereo not given) was tested, and the survivor count (dose: 100.0 mg/kg/injection, schedule: Q01DX009 (ip), vehicle: saline) was 6 of 6.
In the case of CNC(=S)SC, the survivor count [7] is reported as 1 of 4.
For CC(=O)Nc1ccc2c(c1)C(c1ccccc1)=NCC(=O)N2, the T/C (dose: 225.0 mg/kg/injection, schedule: Q01DX Z (ip), vehicle: carboxymethylcellulose (CMC)) was 133 % of control and the survivor count (dose: 337.0 mg/kg/injection, schedule: Q01DX Z (ip), vehicle: carboxymethylcellulose (CMC)) was 5 of 6.
c1ccc(-c2cc(-c3ccccc3)[s+]s2)cc1 was tested, and the survivor count [8] was 3 of 6.
OC1CCN2CCCc3cccc1c32 (stereo not given) was tested, and the survivor count (dose: 100.0 mg/kg/injection, schedule: Q04DX003 (ip), vehicle: other) was 3 of 6, the survivor count (dose: 200.0 mg/kg/injection, schedule: Q04DX003 (ip), vehicle: other) was 0 of 6 and the survivor count (dose: 400.0 mg/kg/injection, schedule: Q04DX003 (ip), vehicle: other) was 0 of 6.
For CCOC(=O)CCN(CC(C)C)C(=S)Nc1ccccc1, the survivor count (dose: 200.0 mg/kg/injection, schedule: Q01DX Z (ip), vehicle: methylcellulose (MC)) was 5 of 6.
With CC(COC(=O)c1ccc(N)cc1)NC1CCCC1 (stereo not given) the survivor count [9] was 1 of 6.
With O=C1C=CC(=O)C2C3C=CC(C3)C12 (stereo not given) the survivor count (dose: 200.0 mg/kg/injection, schedule: Q01DX009 (ip), vehicle: Klucel (hydroxypropylcellulose) (HPC)) was 0 of 6 and the survivor count [10] was 0 of 6.
With COC(=O)C1=C(C(=O)OC)C2(C)C=CC1O2 (stereo not given) the survivor count [5] was 1 of 6, the survivor count (dose: 100.0 mg/kg/injection, schedule: Q01DX009 (ip), vehicle: saline with Tween-80) was 0 of 6 and the survivor count [8] was 0 of 6. The survivor count (dose: 400.0 mg/kg/injection, schedule: Q01DX009 (ip), vehicle: saline with Tween-80) was 0 of 6.
CSc1ccc(NC(=O)C(Cl)Cl)cc1 was tested, and the survivor count (dose: 200.0 mg/kg/injection, schedule: Q04DX002 (ip), vehicle: Klucel (hydroxypropylcellulose) (HPC)) was 3 of 3.
O=C(Nc1ccc(S(=O)(=O)Nc2ccc(N=Nc3ccc(N=Nc4ccccc4)cc3)cc2)cc1)C(N1CC1)(N1CC1)N1CC1 was tested, and the survivor count (dose: 75.0 mg/kg/injection, schedule: Q01DX001 (ip), vehicle: saline) was 1 of 6, the survivor count (dose: 150.0 mg/kg/injection, schedule: Q01DX001 (ip), vehicle: saline) was 0 of 6 and the survivor count [9] was 0 of 6.
O=[N+]([O-])c1cc(O)cc(F)c1 was tested, and the survivor count [1] was 0 of 6 and the survivor count [2] was 0 of 6.
CCC(C)CC(C)c1ccncc1 (stereo not given) was tested, and the survivor count [11] was 0 of 6 and the survivor count [7] was 1 of 6.
With CCNCCCNCC the survivor count [9] was 1 of 6.
In the case of CCSc1ccc2c(cc1=O)C(NC(=S)Nc1ccccc1)CCc1cc(OC)c(OC)c(OC)c1-2 (stereo not given), the survivor count (dose: 400.0 mg/kg/injection, schedule: Q04DX003 (ip), vehicle: carboxymethylcellulose (CMC)) is reported as 6 of 6.
In the case of O=C(Nc1cccc(C(F)(F)F)c1)C(Br)C(Br)c1ccccc1 (stereo not given), the survivor count [10] is reported as 1 of 6.
For O=C1c2ccccc2C(Cl)=C(Cl)C1(Cl)Cl, the survivor count [6] was 6 of 6 and the survivor count (dose: 400.0 mg/kg/injection, schedule: Q04DX003 (ip), vehicle: Klucel (hydroxypropylcellulose) (HPC)) was 0 of 6.
For CC(C)n1c2c([n+](C)c1/C=C/c1ccccc1)C(=O)c1ccccc1C2=O, the survivor count (dose: 4.0 mg/kg/injection, schedule: Q01DX009 (ip), vehicle: Klucel (hydroxypropylcellulose) (HPC)) was 1 of 6, the survivor count (dose: 8.0 mg/kg/injection, schedule: Q04DX003 (ip), vehicle: Klucel (hydroxypropylcellulose) (HPC)) was 0 of 6 and the survivor count (dose: 10.0 mg/kg/injection, schedule: Q01DX001 (ip), vehicle: saline) was 1 of 4. The survivor count (dose: 20.0 mg/kg/injection, schedule: Q01DX001 (ip), vehicle: saline) was 0 of 4, the survivor count (dose: 40.0 mg/kg/injection, schedule: Q01DX001 (ip), vehicle: saline) was 0 of 4 and the survivor count (dose: 50.0 mg/kg/injection, schedule: Q01DX001 (ip), vehicle: saline) was 1 of 4. For the same compound, the survivor count (dose: 80.0 mg/kg/injection, schedule: Q01DX001 (ip), vehicle: saline) was 0 of 4, the survivor count (dose: 100.0 mg/kg/injection, schedule: Q01DX001 (ip), vehicle: saline) was 1 of 4 and the survivor count [11] was 0 of 4. For the same compound, the survivor count [7] was 0 of 4.
